PubChem BioAssay AID493246 – Drosophila RNAi Screening Center – 2011
In all, the deposit lists about 21,000 reagents; below is an unselected part of those with a known target gene and a result. Of all reagents, 429 (2%) were called active. 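Values are raw and not normalised between plates; calls rest on per-plate z-scores that were not deposited.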 Reagents against one gene are numbered here. Names joined by + are all predicted targets of the reagent. Reagent sequences are not shown. Not given: the amount of reagent, the time to read-out.

Screen: 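Identify essential fly genes by loss of cell viability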 (primary screen)
System: Drosophila Kc and S2R+ cells
Reagents: long dsRNA against Drosophila genes
Measured: 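Raw, unnormalised count of remaining cells in each well; per-plate z-scores of cell number underlie the calls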
Reading the numbers: Kc cell number and S2R+ cell number: higher = more cells remaining
Active means: 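Active when the per-plate z-score of cell number is 3 or more in the direction of fewer cells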

target gene,reagent no.,"Kc cell number, rep 1","Kc cell number, rep 2","S2R+ cell number, rep 1","S2R+ cell number, rep 2",Outcome
CG31689,1,1.64e6,1.66e6,1.12e6,1.30e6,inactive
CG2611,1,1.32e6,1.43e6,1.10e6,1.12e6,inactive
Gmppa,1,1.70e6,1.75e6,1.30e6,1.54e6,inactive
Snx6,1,1.42e6,1.42e6,6.25e5,7.84e5,inactive
TTLL1A,1,1.45e6,1.52e6,1.00e6,1.14e6,inactive
tsh,1,1.54e6,1.65e6,1.18e6,2.93e5,inactive
CG15861,1,1.55e6,1.44e6,1.22e6,1.29e6,inactive
CG15027,1,1.52e6,1.55e6,1.14e6,1.33e6,inactive
Usp14,1,1.48e6,1.54e6,1.03e6,1.09e6,inactive
edl,1,1.40e6,1.42e6,1.21e6,1.29e6,inactive
CG14297,1,1.24e6,1.41e6,1.03e6,1.09e6,inactive
Pomp,1,7.87e5,9.05e5,2.93e5,3.30e5,active
Atg10 + CG18853 + CG12822,1,1.35e6,1.48e6,1.05e6,1.10e6,inactive
CSN3,1,1.37e6,1.44e6,9.25e5,1.06e6,inactive
fru,1,1.27e6,1.24e6,6.87e5,7.61e5,inactive
fru,2,9.93e5,9.54e5,6.60e5,7.34e5,active
fru,3,1.38e6,1.69e6,1.03e6,1.07e6,inactive
DCX-EMAP,1,1.43e6,1.52e6,1.16e6,1.27e6,inactive
DCX-EMAP,2,1.66e6,1.72e6,1.13e6,1.28e6,inactive
Cad99C,1,1.49e6,1.49e6,1.03e6,1.14e6,inactive
Cad99C,2,5.02e5,,7.74e5,,inactive

The list goes on (4 carried over from the part before).
target gene,reagent no.,"Kc cell number, rep 1","Kc cell number, rep 2","S2R+ cell number, rep 1","S2R+ cell number, rep 2",Outcome
DCX-EMAP,1,1.43e6,1.52e6,1.16e6,1.27e6,inactive
DCX-EMAP,2,1.66e6,1.72e6,1.13e6,1.28e6,inactive
Cad99C,1,1.49e6,1.49e6,1.03e6,1.14e6,inactive
Cad99C,2,5.02e5,,7.74e5,,inactive
CG8141,1,1.31e6,1.33e6,1.08e6,1.18e6,inactive
metro,1,1.31e6,1.41e6,1.10e6,1.10e6,inactive
metro,2,1.55e6,1.62e6,1.24e6,1.33e6,inactive
Ir52a,1,1.88e6,1.94e6,1.50e6,1.71e6,inactive
Flo2,1,1.20e6,1.52e6,1.10e6,1.15e6,inactive
Flo2,2,1.58e6,1.59e6,1.15e6,1.23e6,inactive
Cpr67Fa2,1,1.34e6,1.33e6,1.24e6,1.30e6,inactive
CG34039,1,1.44e6,1.59e6,1.10e6,1.34e6,inactive
Arl8,1,1.62e6,1.73e6,1.28e6,1.39e6,inactive
scaf6,1,1.41e6,1.59e6,1.25e6,1.31e6,inactive
scaf6,2,1.80e6,1.87e6,1.31e6,1.45e6,inactive
scaf6,3,2.03e6,2.04e6,1.22e6,1.38e6,inactive
CG13258,1,1.57e6,1.60e6,1.37e6,1.54e6,inactive
Nepl14,1,1.49e6,1.47e6,9.77e5,1.04e6,inactive
CG14354,1,1.52e6,1.56e6,8.51e5,9.27e5,inactive
RpS14b,1,8.41e5,8.88e5,6.96e5,8.14e5,active
CG11060,1,1.48e6,1.50e6,1.19e6,1.27e6,inactive
CG3021,1,1.50e6,1.55e6,1.06e6,1.21e6,inactive
CG3021,2,1.74e6,1.79e6,1.09e6,1.26e6,inactive
CCHa1-R,1,1.67e6,1.66e6,1.26e6,1.47e6,inactive
CCHa1-R,2,1.59e6,1.64e6,1.15e6,1.42e6,inactive
sphinx1,1,1.53e6,1.46e6,1.23e6,1.30e6,inactive
sti,1,1.59e6,1.64e6,1.20e6,1.34e6,inactive
sti,2,1.50e6,1.55e6,1.25e6,1.36e6,inactive
Sac1,1,1.35e6,1.46e6,9.83e5,9.91e5,inactive
CR14033,1,1.31e6,1.38e6,5.60e5,7.79e5,inactive
CG5466,1,1.58e5,2.00e5,3.53e5,4.20e5,active
CG2975,1,1.58e6,1.57e6,1.03e6,1.30e6,inactive
l(1)10Bb,1,1.50e6,1.48e6,9.44e5,1.04e6,inactive
tadr,1,1.39e6,1.46e6,1.09e6,9.04e5,inactive
CG7149,1,1.40e6,1.61e6,2.50e5,3.16e5,inactive
bor,1,1.43e6,1.42e6,1.10e6,1.27e6,inactive
Topors,1,1.35e6,1.37e6,1.05e6,1.01e6,inactive
CG8778,1,1.59e6,1.59e6,1.18e6,1.38e6,inactive
Idgf6,1,1.46e6,1.50e6,1.08e6,1.23e6,inactive
corto,1,1.89e6,1.78e6,1.42e6,1.40e6,inactive
PK2-R2,1,1.26e6,1.36e6,1.07e6,1.20e6,inactive
Lsp1beta,1,1.25e6,1.30e6,8.36e5,9.70e5,inactive
